{
  "source": "PubChem BioAssay AID504444",
  "about": "(National Center for Advancing Translational Sciences (NCATS), 2011)",
  "note": "The whole screen tested about 360,000 compounds, of which about 7,500 (2.1%) were called active. The shares of active, inactive and inconclusive entries below differ from those in the screen. The call rests on the fitted dose curve; in most records, active means well fitted inhibition curve with a large enough effect; inconclusive means small, poorly fitted or top-dose-only effect, or effect the other way; inactive means flat fitted curve, though single readings scatter. Potencies of inconclusive entries are doubtful fits and often do not repeat. On the % scale 0 is the no-effect control and ±100 the full control effect; potency means the concentration at half of the fitted maximal effect.",
  "data": [
    {"assay": "Nrf2 qHTS screen for inhibitors; further: nearly all actives have a fitted effect of over 60% in size", "details": "A549 ARE-Fluc reporter, luciferase luminescence, 18-24 h; activity change, negative = inhibition: at 46 µM (top of the series)", "procedure,_shortened": "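Cells were seeded and rested 2 h, then exposed to compounds for 18-24 h. CellTiter-Fluor was read first as a viability measure. BugLite was added 15 min before the final luminescent read of ARE-luciferase activity in A549 cells.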", "values": [
      {"smiles": "CC(NC(=O)CN1CCN(c2ccccc2F)CC1)c1ccccc1", "note": "(stereo unspecified)", "activity change, negative = inhibition": "inactive: -5.51%"},
      {"smiles": "CCN(CC)CCOc1ccc2nc(N(C)C)sc2c1", "Potency": "inconclusive: 29.1 µM [activator, partial curve, poor fit]"},
      {"smiles": "CN=c1sc(C(=O)Nc2ccccc2)c(C)n1C", "Potency": "inconclusive: 5.8 µM [activator, full curve]"},
      {"smiles": "COc1ccc(-c2nc(NC(=O)C3CCN(c4nc5ccccc5o4)CC3)sc2C)cc1", "Potency": "inconclusive: 29.1 µM [falling, single point]"},
      {"smiles": "COc1ccc(-c2cc(C(F)(F)F)nc(SCCC(=O)NCc3ccco3)n2)cc1", "Potency": "inconclusive: 16.4 µM [falling, single point]"},
      {"smiles": "Cc1cccc(C#Cc2ccccc2)n1", "Potency": "inconclusive: 20.6 µM [activator, partial curve]"},
      {"smiles": "S=C(Nc1ccccc1)N1N=CCC1c1ccccc1", "note": "(stereo unspecified)", "Potency": "inconclusive: 1.84 µM [activator, full curve, poor fit]"},
      {"smiles": "c1ccc(-c2nnc(-c3ccccn3)s2)nc1", "Potency": "inconclusive: 4.11 µM [activator, full curve]"},
      {"smiles": "Nc1ccc(C(=O)OCC(=O)N2CCOCC2)cc1[N+](=O)[O-]", "Potency": "inconclusive: 7.31 µM [activator, partial curve, poor fit]"},
      {"smiles": "COc1cc(Nc2c3c(nc4ccccc24)CCC3)cc(OC)c1OC", "Potency": "inconclusive: 3.66 µM [falling, partial curve, poor fit]"},
      {"smiles": "C/C(=C\\c1cccc(Br)c1)C(=O)c1c(C)cc(C)[nH]c1=O", "Potency": "inconclusive: 29.1 µM [falling, single point]"},
      {"smiles": "O=C(NCc1ccco1)c1ccc2c(c1)N(Cc1ccc(Cl)cc1)CCS2", "Potency": "inconclusive: 32.6 µM [falling, single point]"},
      {"smiles": "Clc1nnc(N2CCCCC2)c2ccccc12", "Potency": "active: 16.4 µM"},
      {"smiles": "Nc1ccn(C2OC(COP(=O)(O)O)C(O)C2O)c(=O)n1", "note": "(stereo unspecified)", "Potency": "inconclusive: 0.0052 µM [falling, full curve, poor fit]"},
      {"smiles": "COc1ccc(NC(=O)Cn2nnc3ccccc32)c([N+](=O)[O-])c1", "Potency": "inconclusive: 20.6 µM [falling, single point]"},
      {"smiles": "CCOC(=O)Nc1ccc2c(c1)N(C(=O)CCN(CC)CC)c1ccccc1S2=O", "note": "(stereo unspecified)", "activity change, negative = inhibition": "inactive: -15.7%"},
      {"smiles": "COc1ccc(NC(=O)COC(=O)CC2Sc3ccccc3NC2=O)cc1", "note": "(stereo unspecified)", "Potency": "inconclusive: 20.6 µM [activator, partial curve]"},
      {"smiles": "COc1ccc(C(=O)COc2ccc(F)cc2)c(O)c1C", "Potency": "inconclusive: 16.4 µM [activator, single point]"},
      {"smiles": "Cc1ccc(-c2c3c(=O)n(C)c(=O)n(C)c3cn2-c2cc(C)ccc2O)cc1", "activity change, negative = inhibition": "inactive: 8.92%"},
      {"smiles": "COCCNC(=O)C1(C(F)(F)F)C/C(=C\\CCO)CCCO1", "note": "(stereo unspecified)", "activity change, negative = inhibition": "inactive: 10.2%"},
      {"smiles": "O=C(COC(=O)C1CCC1)Nc1cccc(Cl)c1", "Potency": "inconclusive: 3.66 µM [falling, full curve, poor fit]"},
      {"smiles": "Clc1ccc(C=NNc2ccccn2)c(Cl)c1", "Potency": "inconclusive: 3.66 µM [activator, partial curve, poor fit]"},
      {"smiles": "Cc1c(Cl)cccc1NC(=O)CSC(C)c1nc2ccccc2c(=O)[nH]1", "note": "(stereo unspecified)", "Potency": "inconclusive: 29.1 µM [falling, partial curve, poor fit]"},
      {"smiles": "COc1ccc(N2CCN(C3C(=O)c4ccccc4N3C(C)=O)CC2)cc1", "note": "(stereo unspecified)", "activity change, negative = inhibition": "inactive: 21.9%"},
      {"smiles": "O=C(N/N=C/c1c[nH]c2ccccc12)c1cc(-c2ccc(-c3ccccc3)cc2)n[nH]1", "Potency": "inconclusive: 20.6 µM [falling, single point]"},
      {"smiles": "Cc1nn(Cc2cccc(C(=O)N3CCCC(C)C3)c2)c(C)c1[N+](=O)[O-]", "note": "(stereo unspecified)", "Potency": "inconclusive: 13 µM [falling, partial curve, poor fit]"},
      {"smiles": "COc1cccc(NC(=O)Cn2c(=O)n(CC(=O)NCCc3ccccc3)c(=O)c3sccc32)c1", "activity change, negative = inhibition": "inactive: 2.99%"},
      {"smiles": "Cc1cc(O)c(/C=N/OCc2ccc(Cl)cc2Cl)c(=O)o1", "Potency": "inconclusive: 20.6 µM [falling, partial curve, poor fit]"},
      {"smiles": "O=C(NCC1CCCO1)c1ccccc1-c1nc(-c2ccccc2Cl)no1", "note": "(stereo unspecified)", "Potency": "inconclusive: 9.2 µM [activator, single point]"},
      {"smiles": "CCC1(CC)NC(=O)N(CC(=O)OCC(=O)Nc2cc(OC)ccc2OC)C1=O", "activity change, negative = inhibition": "inactive: 3.28%"},
      {"smiles": "CCOC(=O)c1cc(-c2ccc(F)cc2)n(CC(=O)NCc2ccccn2)c1C", "Potency": "inconclusive: 14.6 µM [falling, partial curve]"},
      {"smiles": "Cc1ccc(S(=O)(=O)c2ccc(Oc3ccccc3)cc2)cc1", "Potency": "inconclusive: 23.1 µM [falling, single point]"},
      {"smiles": "Cc1c(C(=O)NCCSc2ccc(Cl)cc2)cccc1[N+](=O)[O-]", "Potency": "inconclusive: 20.6 µM [falling, partial curve, poor fit]"},
      {"smiles": "CCCCCCc1cc2cc(C(=O)OCC)c(=O)oc2cc1O", "activity change, negative = inhibition": "inactive: -16.4%"},
      {"smiles": "COC(=O)c1ccc(CNC(=O)COC(=O)c2ccc(N(C)C)cc2)cc1", "Potency": "inconclusive: 25.9 µM [falling, partial curve, poor fit]"},
      {"smiles": "CC(=O)N(c1nnc(-c2ccc(C)cc2)s1)C1CCCC1", "activity change, negative = inhibition": "inactive: 0.416%"},
      {"smiles": "CCN1C(=O)c2ccc(C(=O)Nc3ccc(O)cc3C)cc2C1=O", "Potency": "inconclusive: 16.4 µM [falling, single point]"},
      {"smiles": "CCN(CC)c1ccc(NC(=O)CN2C(=O)c3cccnc3Sc3ccccc32)c(C)c1", "Potency": "inconclusive: 0.13 µM [activator, full curve, poor fit]"},
      {"smiles": "C=CCN(CC=C)S(=O)(=O)c1ccc(C(=O)Nc2nnc(COC)o2)cc1", "Potency": "inconclusive: 20.6 µM [falling, partial curve, poor fit]"},
      {"smiles": "COc1ccccc1N1CC(C(=O)Nc2nnc(SCC(=O)NCC3CCCO3)s2)CC1=O", "note": "(stereo unspecified)", "Potency": "inconclusive: 29.1 µM [activator, single point]"},
      {"smiles": "CC(Cc1c[nH]c2ccccc12)C(=O)NCc1ccco1", "note": "(stereo unspecified)", "Potency": "inconclusive: 20.6 µM [falling, partial curve, poor fit]"},
      {"smiles": "O=c1c(=O)n(Cc2c(F)cccc2Cl)ccn1Cc1ccccc1", "Potency": "inconclusive: 23.1 µM [falling, single point]"},
      {"smiles": "Cc1cccc(NC(=O)c2nc[nH]c2C(=O)NCc2ccccc2)c1", "Potency": "inconclusive: 29.1 µM [falling, single point]"},
      {"smiles": "S=c1[nH]cc(-c2ccccc2)n1-c1cccc(Cl)c1", "Potency": "inconclusive: 29.1 µM [falling, single point]"},
      {"smiles": "Cc1cc2c(NC(=O)CC(C)(C)CC(=O)O)cccc2nn1", "Potency": "inconclusive: 2.31 µM [falling, full curve, poor fit]"},
      {"smiles": "COc1ccc2oc(-c3ccc(C)c(NC(=O)CSc4ccc(Cl)cc4)c3)nc2c1", "Potency": "inconclusive: 3.26 µM [activator, full curve]"},
      {"smiles": "CC(=O)N1c2ccc(S(=O)(=O)N3CCN(c4cccc(Cl)c4)CC3)cc2CC1C", "note": "(stereo unspecified)", "Potency": "inconclusive: 4.11 µM [falling, single point]"},
      {"smiles": "CCCn1c(NC(=O)CCNC(=O)c2ccccc2Cl)nc2ccccc21", "activity change, negative = inhibition": "inactive: 12.7%"},
      {"smiles": "COc1cccc(Nc2nc(-c3ccc4c(c3)OCCO4)cs2)c1", "Potency": "inconclusive: 1.84 µM [activator, partial curve, poor fit]"},
      {"smiles": "O=c1[nH]c(CSc2nnc(Cc3ccccc3)o2)nc2ccccc12", "Potency": "inconclusive: 29.1 µM [falling, partial curve, poor fit]"},
      {"smiles": "CCCCCCCn1c(NC(=O)CC)nc2ccccc21", "Potency": "inconclusive: 23.1 µM [falling, single point]"},
      {"smiles": "Cc1nnc2c3ccccc3c(-c3cccs3)nn12", "Potency": "inconclusive: 11.6 µM [falling, partial curve]"},
      {"smiles": "O=C(Nc1cc(Cl)cc(Cl)c1)c1ccc(Cn2c(=O)[nH]c3ccsc3c2=O)cc1", "Potency": "inconclusive: 16.4 µM [falling, single point]"},
      {"smiles": "O=C1c2cccc3c(Nc4ccccc4Cl)c([N+](=O)[O-])cc(c23)C(=O)N1CCO", "Potency": "active: 13 µM"},
      {"smiles": "COc1cccc(-c2cc(C(F)(F)F)n3ncc(C(=O)NCC4CCCO4)c3n2)c1", "note": "(stereo unspecified)", "Potency": "inconclusive: 32.6 µM [falling, single point]"},
      {"smiles": "O=C(CSc1nc2[nH]c(=O)cc(O)c2s1)Nc1nncs1", "activity change, negative = inhibition": "inactive: 5.82%"},
      {"smiles": "Cc1ccc(CNC(=O)C2CCN(C(=O)c3cnn(-c4ccccc4)c3-n3cccc3)CC2)cc1", "Potency": "inconclusive: 29.1 µM [falling, single point]"},
      {"smiles": "CCNc1nc(NCC)n2c(SC(C(=O)Nc3cc(C)ccc3OC)c3ccccc3)nnc2n1", "note": "(stereo unspecified)", "Potency": "inconclusive: 16.4 µM [falling, partial curve, poor fit]"},
      {"smiles": "O=C(Nc1nc(-c2ccc(F)cc2)cs1)c1ccc(N2C(=O)CCC2=O)cc1", "Potency": "inconclusive: 3.26 µM [falling, full curve]"},
      {"smiles": "Cc1c(Cl)cccc1-n1ncc(C(=O)Nc2ccc(F)cc2F)c1C1CCN(C(=O)OC(C)(C)C)CC1", "Potency": "active: 25.9 µM"},
      {"smiles": "C/C(=N\\Nc1ccc([N+](=O)[O-])cc1)c1cc2ccccc2o1", "Potency": "inconclusive: 25.9 µM [activator, single point]"},
      {"smiles": "COc1ccc(C(=O)Nc2ccccc2-c2nnn(CC(=O)NCc3ccco3)n2)cc1", "activity change, negative = inhibition": "inactive: -9.21%"},
      {"smiles": "O=C1CN(C(=O)COC(=O)CCc2ccccc2O)c2ccccc2N1", "activity change, negative = inhibition": "inactive: 2.98%"},
      {"smiles": "CCOC(=O)c1sc2ccccc2c1OC(=O)c1ccc(C)cc1", "Potency": "inconclusive: 29.1 µM [falling, single point]"},
      {"smiles": "CCN1C(=O)[C@H]2[C@H]3CN=C(SCC(=O)c4ccccc4)N3[C@@](CC)(C(=O)OC)[C@H]2C1=O", "Potency": "inconclusive: 14.6 µM [activator, partial curve, poor fit]"},
      {"smiles": "Cn1c(CC(=O)c2ccc(Br)cc2)[n+](C)c2ccccc21", "activity change, negative = inhibition": "inactive: 19.6%"}
    ]}
  ]
}
